End groups of sequences in plain letters are not given here.

This series in a line: general procedure: Fmoc solid-phase peptide synthesis; TentaGel S Rink amide resin (Rapp Polymere, loading 0.22 mmol/g); HATU/DIPEA. As to conditions: whole synthesis, 220 nm.
As to RRRRRAQWW, the “final HPLC purity” value was 98%.
With RRRRRCQW, the “final HPLC purity” value came to 97%.
Consider RRRRRHQWW, for which the “final HPLC purity” value stood at 98%.
Take RRRRRCAWW: the “final HPLC purity” value is on record as 98%.
Regarding RRRRRCQAW, the “final HPLC purity” value came out at 98%.
As for RRRRRCQWW, the “final HPLC purity” value was more than 99%.
Regarding RRRRRWWQC, the “final HPLC purity” value is reported as 96%.
In the case of RRRRRCQWA, the “final HPLC purity” value is recorded as 95%.
In the case of RRRRRMQWW, the “final HPLC purity” value was found to be 97%.
Regarding RRRRRFQWW, the “final HPLC purity” value is more than 99%.
With RRRRRQWW, the “final HPLC purity” value was more than 99%.

The values above are taken from article PMC11865978 (ACS Omega, 2025).
